Among the data in patent US20170226179A1 are binding values, retold here.

Experiment [1] addresses human ferritin fused with mCherry at the C-terminal (FTH1-mCherry) (human) (UniProt P02794). In words: co-immunoprecipitation from transfected HEK-293 cells (FIG. 9e).
Experiment [2] addresses endogenous ferritin (of HEK-293 cells) (UniProt P02794). Briefly: immunoprecipitation of TRPV1.D5 from HEK-293 cells (data not shown).

Results are given in words; binding and its absence hold for the method and conditions named. For some assays here: In cells and extracts the contact can be indirect. Some binding calls cover weakened binding; strength is not graded here. Sequences can lack the tags named with a protein.

B1: Flag-TRPV1.D5 (mouse TRPV1 linked to human domain 5 of kininogen 1, labeled with FLAG) (protein, not shown: small tags and cut ends)
chain: MEKWASLDSDESEPPAQENSCPDPPDRDPNSKPPPAKPHIFATRSRTRLFGKGDSEEASPMDCPYEEGGLASCPIITVSSVVTLQRSVDGPTCLRQTSQDSVSTGVETPPRLYDRRSIFDAVAQSNCQELESLLSFLQKSKKRLTDSEFKDPETGKTCLLKAMLNLHNGQNDTIALLLDIARKTDSLKQFVNASYTDSYYKGQTALHIAIERRNMALVTLLVENGADVQAAANGDFFKKTKGRPGFYFGELPLSLAACTNQLAIVKFLLQNSWQPADISARDSVGNTVLHALVEVADNTADNTKFVTNMYNEILILGAKLHPTLKLEELTNKKGLTPLALAASSGKIGVLAYILQREIHEPECRHLSRKFTEWAYGPVHSSLYDLSCIDTCEKNSVLEVIAYSSSETPNRHDMLLVEPLNRLLQDKWDRFVKRIFYFNFFVYCLYMIIFTTAAYYRPVEGLPPYKLNNTVGDYFRVTGEILSVSGGVYFFFRGIQYFLQRRPSLKSLFVDSYSEILFFVQSLFMLVSVVLYFSHRKEYVASMVFSLAMGWTNMLYYTRGFQQMGIYAVMIEKMILRDLCRFMFVYLVFLFGFSTAVVTLIEDGKNNSLPVESPPHKCRGSACRPGNSYNSLYSTCLELFKFTIGMGDLEFTENYDFKAVFIILLLAYVILTYILLLNMLIALMGETVNKIAQESKNIWKLQRAITILDTEKSFLKCMRKAFRSGKLLQVGFTPDGKDDFRWCFRVDEVNWTTWNTNVGIINEDPGNCEGVKRTLSFSLRSGRVSGRNWKNFALVPLLRDASTRDRHSTQPEEVQLKHYTGSLKPEDAEVFKDSMAPGEKCSRVSPPHTSMAPAQDEERDSGKEQGHTRRHDWGHEKQRKHNLGHGHKHERDQGHGHQRGHGLGHGHEQQHGLGHGHKFKLDDDLEHQGGHVLDHGHKHKHGHGHGKHKNKGKKNGKHNGWKTEHLASL
Consider B1, for which the binding entry in experiment [1] and in experiment [2] was “binds” in each case.
